Measurements as given in PubChem BioAssay AID2685 (National Center for Advancing Translational Sciences (NCATS), 2010).
This is one part of the list. These are further read-outs of the screen, such as a control signal, another cell line or another target. No call is given for them. Most of these compounds were active or inconclusive in the main read-out, so they are no random draw. Words in brackets tell the shape of the fitted curve; partial curves, single points and poor fits give uncertain potencies.

Assay: qHTS Assay for Lipid Storage Modulators in Drosophila S3 Cells;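 for cell number change: cells counted by Cell Tracker Red CMTPX staining in the red channel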
Conditions: BODIPY lipid droplet fluorescence, 18-24 h; for cell number change: measured here: cell count max response, cells fed with added oleic acid
In short: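 Laser-scanning cytometry quantifies lipid droplet accumulation (500–530 nm total intensity; droplet/cell object ratio) in oleic acid-fed (400 uM added) Drosophila S3 cells treated with a concentration series. 20 uM Triacsin C defined 100% inhibition.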

[1] = measured here: cell number channel AC50, cells fed with added oleic acid
[2] = measured here: lipid fluorescence (Fed channel) AC50, cells fed with added oleic acid

Row | Compound | cell number change [%] | AC50 [1] | AC50 [2]
1 | O=C(O)c1[nH]c2ccccc2c1CC(=O)N1CCN(c2ccccc2)CC1 | 10.8 | 0.164 µM [falling, full curve, poor fit] | 29.1 µM [rising, single point]
2 | COc1cc(C(=O)NNC(=O)NC2CCCCC2)cc(OC)c1OC | -9.46 |  | 14.6 µM [falling, partial curve]
3 | COc1ccc([C@@H]2OC2(C(N)=O)C(N)=O)cc1 | -35.5 | 3.66 µM [falling, full curve] | 0.092 µM [falling, full curve]
4 | CCCC(C)C(=O)Nc1nc(C)c(-c2csc(Nc3ccccc3OC)n2)s1 (centres undefined) | -35.9 | 4.61 µM [falling, full curve] | 4.11 µM [falling, partial curve]
5 | FC(F)(F)c1nnc2ccc(NCc3cccnc3)nn12 | 3.91 |  | 
6 | Cn1nnc(NC(=O)c2cccc(OCc3ccccc3)c2)n1 | 53.3 | 29.1 µM [rising, single point] | 
7 | COC(=O)c1sc(N2C(=O)C(O)=C(C(=O)c3ccc(C)o3)C2c2ccco2)nc1C (centres undefined) | 14.1 |  | 
8 | CCCC(=O)NCCc1cc2ccc(OC)cc2[nH]c1=O | 118 | 14.6 µM [rising, partial curve] | 16.4 µM [rising, partial curve]
9 | CCc1nc(OCc2ccccc2)c2sc3nc4c(cc3c2n1)COC(C)(C)C4 | -40.5 | 23.1 µM [falling, partial curve, poor fit] | 
10 | CCSc1nnc(NC(=O)[C@H](C)NC(=O)c2ccccc2Cl)s1 |  |  | 0.731 µM [falling, single point]
11 | CCCCn1c(N)c(N(CC(C)C)C(=O)c2ccc(OCC3CCCO3)cc2)c(=O)[nH]c1=O (centres undefined) | -18.7 |  | 6.51 µM [falling, single point]
12 | CCOC(=O)CSc1nnc(-c2c[nH]c3ccccc23)o1 | -3.85 |  | 0.651 µM [rising, single point]
13 | COc1cc(OC)cc(C(=O)NCC(=O)OCC(=O)N2c3ccccc3NC(=O)C2(C)C)c1 | 28.6 | 4.61 µM [rising, full curve, poor fit] | 0.58 µM [falling, single point]
14 | COCCN1CCN(C(=O)C2CCC(=O)N(CCc3cccc(F)c3)C2)CC1 (centres undefined) | -0.578 |  | 
15 | O=C(N1CCCCCC1)N1CCN(S(=O)(=O)N2CCCCC2)CC1 |  |  | 0.58 µM [falling, single point]
16 | CCN(CC(=O)Nc1ccccc1OC)C(=O)c1cccc(-n2cccc2)c1 | 3.68 |  | 6.51 µM [rising, single point]
17 | COc1cc(/C=C/C(=O)c2ccc3c(c2)OCCO3)cc(OC)c1OC | 1.23 |  | 23.1 µM [falling, single point]
18 | COCc1cc(C)nc2sc(C(=O)N3CCCC3)c(N)c12 |  |  | 3.26 µM [rising, partial curve]
19 | CCOC(=O)N1CCN(C(=O)CSc2nc(-c3cccc(C)c3)ns2)CC1 | 30.3 | 0.517 µM [rising, partial curve] | 25.9 µM [rising, single point]

Row | Compound | cell number change [%] | AC50 [1] | AC50 [2]
20 | CN(C)CCOc1nc(-c2ccccc2)nc2c1oc1ccccc12 | -32.6 | 29.1 µM [falling, single point] | 13 µM [falling, single point]
21 | O=c1[nH]c(=S)[nH]c(O)c1N=Nc1ccc(-c2ccccc2)cc1[N+](=O)[O-] | -37.3 |  | 
22 | O=C(O)c1ccc(Cn2cnc3cccnc32)cc1 | -15.4 |  | 32.6 µM [falling, single point]
23 | CCOC(=O)c1ccc(NC(=O)c2ccc(NC(=O)c3ccccc3)cc2)cc1 | -16 |  | 0.461 µM [falling, full curve]
24 | Cc1cccc(-n2c(CCc3ccccc3)nnc2SCC(=O)c2ccccc2)c1 | 17 |  | 2.31 µM [rising, full curve]
25 | CCc1ccc(CNC(=O)C2CCCN(c3nn4c(=O)cc(C)nc4s3)C2)cc1 (centres undefined) | 21.3 |  | 18.4 µM [falling, single point]
26 | CCOc1ccccc1NC(=S)NCCc1ccc(F)cc1 | 49.3 |  | 
27 | COc1ccc(-n2c(SCC(=O)Nc3ccccc3OC)nc(O)cc2=O)cc1 | -1.33 |  | 0.92 µM [falling, partial curve]
28 | CC1CCc2c(sc3ncnc(SCC(=O)N4CCN(C(=O)c5ccco5)CC4)c23)C1 (centres undefined) | -9.43 |  | 0.184 µM [falling, partial curve]
29 | CCCc1nn(-c2cc(Cl)ccc2OC)c2c1C(=O)CCC2 |  | 3.26 µM [rising, partial curve] | 0.206 µM [rising, full curve]
30 | O=C(Nc1nnc(C2=COCCO2)o1)c1ccc(Br)cc1 | -23.3 |  | 9.2 µM [falling, partial curve]
31 | O=C(NNC(=O)c1ccc2ccccc2c1O)NC1CCCCC1 | 34.1 | 5.17 µM [rising, partial curve] | 2.06 µM [rising, full curve]
32 | O=C(NC1CCCc2ccccc21)C1CCN(S(=O)(=O)c2ccccc2)CC1 (centres undefined) | -20.6 | 0.13 µM [falling, full curve, poor fit] | 
33 | CCCn1c(N2CCN(C(=O)NCc3ccccc3)CC2)nc2ccccc21 | 6.11 |  | 3.66 µM [rising, partial curve, poor fit]
34 | CCn1nc(C)cc1-c1nnc(SCC(=O)Nc2ccccc2)n1CCCOC |  |  | 0.00517 µM [falling, full curve, poor fit]
35 | CC1CCCCC1NC(=O)c1cccc(NC2=NC3CS(=O)(=O)CC3S2)c1 (centres undefined) | 5.19 | 0.146 µM [rising, full curve, poor fit] | 3.66 µM [rising, full curve]
36 | O=C(Cc1ccc(S(=O)(=O)N2CCOCC2)s1)NCCOc1ccccc1 | 34.5 | 18.4 µM [rising, single point] | 
37 | CC(=O)Nc1sc2c(c1C(c1ccccc1Cl)N1CCN(CCO)CC1)CCCC2 (centres undefined) | -10.1 |  | 5.8 µM [falling, single point]

Ordered by formula weight (low to high): 3 of the compounds above
Row | Compound | cell number change [%] | AC50 [1] | AC50 [2]
22 | O=C(O)c1ccc(Cn2cnc3cccnc32)cc1 | -15.4 |  | 32.6 µM [falling, single point]
30 | O=C(Nc1nnc(C2=COCCO2)o1)c1ccc(Br)cc1 | -23.3 |  | 9.2 µM [falling, partial curve]
33 | CCCn1c(N2CCN(C(=O)NCc3ccccc3)CC2)nc2ccccc21 | 6.11 |  | 3.66 µM [rising, partial curve, poor fit]
